One substance from PMC5342438 can be followed below.

Amino acid sequences for entries named in this document (tags omitted).
UniProt P08134: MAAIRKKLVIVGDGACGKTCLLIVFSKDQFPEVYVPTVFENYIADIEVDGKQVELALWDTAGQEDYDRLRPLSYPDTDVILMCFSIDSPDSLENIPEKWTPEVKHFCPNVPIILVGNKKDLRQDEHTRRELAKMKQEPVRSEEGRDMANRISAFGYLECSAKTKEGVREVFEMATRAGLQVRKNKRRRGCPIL
UniProt Q9HCM4: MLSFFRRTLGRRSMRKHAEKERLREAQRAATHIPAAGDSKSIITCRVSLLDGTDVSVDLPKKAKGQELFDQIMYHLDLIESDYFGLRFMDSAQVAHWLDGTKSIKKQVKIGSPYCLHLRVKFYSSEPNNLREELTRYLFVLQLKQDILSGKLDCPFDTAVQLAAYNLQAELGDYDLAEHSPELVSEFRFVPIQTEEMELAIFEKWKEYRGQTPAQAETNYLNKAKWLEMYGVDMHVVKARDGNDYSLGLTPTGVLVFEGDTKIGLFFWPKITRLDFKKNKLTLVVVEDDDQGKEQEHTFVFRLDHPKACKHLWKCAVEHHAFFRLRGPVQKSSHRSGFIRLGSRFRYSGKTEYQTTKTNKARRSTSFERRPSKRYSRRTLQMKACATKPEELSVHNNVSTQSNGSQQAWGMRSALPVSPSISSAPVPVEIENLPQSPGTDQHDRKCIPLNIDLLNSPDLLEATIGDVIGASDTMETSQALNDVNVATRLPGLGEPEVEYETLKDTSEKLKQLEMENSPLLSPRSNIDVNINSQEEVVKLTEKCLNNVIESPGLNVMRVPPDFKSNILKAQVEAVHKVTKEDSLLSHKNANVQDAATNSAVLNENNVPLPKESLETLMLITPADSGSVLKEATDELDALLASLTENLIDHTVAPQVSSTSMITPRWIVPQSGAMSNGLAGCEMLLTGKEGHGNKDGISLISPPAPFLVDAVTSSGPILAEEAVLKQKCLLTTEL

These are yes or no findings as the source states them, for the method shown. In cells and extracts the contact can be indirect. Some entries that bind do so weakly or less than the wild type.

For this assay, the target named is RhoC (human (endogenous in HCCLM3 and MHCC97-H)) (UniProt P08134). Nature of the assay: co-IP; lysates of HCCLM3 and MHCC97-H cells in 1% NP-40, 0.5% deoxycholate and SDS; precipitated with anti-YMO1 antibody (overnight, 4°C, protein A-Sepharose) or anti-RhoC antibody, rabbit IgG as control; western blot.

For “Yurt/Mosaic eyes-like 1 (YMO1) (from UniProt Q9HCM4 1-733)”, the binding entry is “binds”.
